Our source for the binding values is PMC4634908.

These are yes or no findings as the source states them, for the method shown. A result given as binding can be weak or reduced; the word gives no strength.

What all share (assay): two-hybrid; MatchMaker system; TaCBL in pGBKT7 (BD), TaCIPK in pGADT7 (AD), co-transformed into yeast Y187; growth on TDO (SD/-Trp/-Leu/-His) with 10 mM 3-AT; + growth, - no growth
The target of assay [1] is TaCBL4 (Triticum aestivum cv. Chinese Spring) (UniProt V9LSA1).
Assay [2] deals with TaCBL9 (Triticum aestivum cv. Chinese Spring) (UniProt V9LSA5).
Assay [3] concerns the target TaCBL7 (Triticum aestivum cv. Chinese Spring) (UniProt V9LSE0).

For TaCIPK22 (from UniProt A0A9R1F072), the binding entry in assay [1] and in assay [2] was “no binding” in each case.
Turning to TaCIPK26 (from UniProt A0A9R1MTK5), the results for the binding result in assay [1], in assay [3] and in assay [2] were “binds”, “binds” and “no binding”, respectively.
For the substance TaCIPK31 (from UniProt A0A9R1GM64), the binding entry in assay [1], in assay [3] and in assay [2] was “binds” in each case.
Regarding TaCIPK32 (from UniProt W5ECV3), the binding result in assay [1], in assay [3] and in assay [2] was “no binding” throughout.
